Results are given in words; binding and its absence hold for the method and conditions named. In cells and extracts the contact can be indirect. Some binding calls cover weakened binding; strength is not graded here. For part of these data: Tags and fused reporters may be left off the sequences shown.
Legend:
[1] = biological target: BAF60a (mouse (endogenous in liver and primary hepatocytes)) (UniProt Q61466); test: co-IP; mouse primary hepatocytes transfected with vector or the YB-1 plasmid followed by 6-h DF stimulation; immunoblots of precipitated proteins
[2] = biological target: BAF60a (mouse (endogenous in liver and primary hepatocytes)) (UniProt Q61466); test: co-IP; endogenous proteins; mouse liver homogenates/lysates (ad libitum, 24-h fasting, ND or HFD feeding) and mouse primary hepatocyte lysates (untreated, DF 6 h or FFAs 24 h); 40 μg lysate with protein-A/G agarose beads and 1 μg anti-BAF60a or anti-YB-1 antibody overnight; Western blot
[3] = biological target: BAF60a (mouse (endogenous in liver and primary hepatocytes)) (UniProt Q61466); test: co-IP; mouse primary hepatocytes infected with Ad-GFP or Ad-PGC-1α followed by 24-h FFA stimulation; immunoblots of precipitated proteins

Amino acid sequences for entries named in this document (tags omitted).
UniProt Q61466: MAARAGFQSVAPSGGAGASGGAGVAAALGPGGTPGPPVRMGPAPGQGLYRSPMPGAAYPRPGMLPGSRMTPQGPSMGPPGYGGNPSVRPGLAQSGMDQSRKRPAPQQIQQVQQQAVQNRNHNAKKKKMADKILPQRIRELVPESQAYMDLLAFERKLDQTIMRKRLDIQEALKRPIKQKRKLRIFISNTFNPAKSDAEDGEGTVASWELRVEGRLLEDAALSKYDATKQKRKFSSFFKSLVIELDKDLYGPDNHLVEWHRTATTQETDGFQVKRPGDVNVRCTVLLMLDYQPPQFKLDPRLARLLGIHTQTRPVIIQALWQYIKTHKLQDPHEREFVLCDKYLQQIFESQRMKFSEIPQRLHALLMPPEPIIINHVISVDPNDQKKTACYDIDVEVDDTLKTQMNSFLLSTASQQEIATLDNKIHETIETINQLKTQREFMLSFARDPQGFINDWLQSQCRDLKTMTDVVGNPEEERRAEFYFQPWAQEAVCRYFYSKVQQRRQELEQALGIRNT

| Binder | binding [1] | binding [2] | binding [3] |
| --- | --- | --- | --- |
| peroxisome proliferator-activated receptor-γ coactivator-1α (PGC-1α) (protein, UniProt O70343 1-797) MAWDMCSQDSVWSDIECAALVGEDQPLCPDLPELDLSELDVNDLDTDSFLGGLKWCSDQSEIISNQYNNEPANIFEKIDEENEANLLAVLTETLDSLPVDEDGLPSFDALTDGAVTTDNEASPSSMPDGTPPPQEAEEPSLLKKLLLAPANTQLSYNECSGLSTQNHAANHTHRIRTNPAIVKTENSWSNKAKSICQQQKPQRRPCSELLKYLTTNDDPPHTKPTENRNSSRDKCASKKKSHTQPQSQHAQAKPTTLSLPLTPESPNDPKGSPFENKTIERTLSVELSGTAGLTPPTTPPHKANQDNPFKASPKLKPSCKTVVPPPTKRARYSECSGTQGSHSTKKGPEQSELYAQLSKSSGLSRGHEERKTKRPSLRLFGDHDYCQSLNSKTDILINISQELQDSRQLDFKDASCDWQGHICSSTDSGQCYLRETLEASKQVSPCSTRKQLQDQEIRAELNKHFGHPCQAVFDDKSDKTSELRDGDFSNEQFSKLPVFINSGLAMDGLFDDSEDESDKLSYPWDGTQPYSLFDVSPSCSSFNSPCRDSVSPPKSLFSQRPQRMRSRSRSFSRHRSCSRSPYSRSRSRSPGSRSSSRSCYYYESSHYRHRTHRNSPLYVRSRSRSPYSRRPRYDSYEAYEHERLKRDEYRKEHEKRESERAKQRERQKQKAIEERRVIYVGKIRPDTTRTELRDRFEVFGEIEECTVNLRDDGDSYGFITYRYTCDAFAALENGYTLRRSNETDFELYFCGRKQFFKSNYADLDTNSDDFDPASTKSKYDSLDFDSLLKEAQRSLRR | binds | binds | – |
| PGC-1α overexpressed from adenovirus (Ad-PGC-1α) (protein, UniProt O70343 1-797) MAWDMCSQDSVWSDIECAALVGEDQPLCPDLPELDLSELDVNDLDTDSFLGGLKWCSDQSEIISNQYNNEPANIFEKIDEENEANLLAVLTETLDSLPVDEDGLPSFDALTDGAVTTDNEASPSSMPDGTPPPQEAEEPSLLKKLLLAPANTQLSYNECSGLSTQNHAANHTHRIRTNPAIVKTENSWSNKAKSICQQQKPQRRPCSELLKYLTTNDDPPHTKPTENRNSSRDKCASKKKSHTQPQSQHAQAKPTTLSLPLTPESPNDPKGSPFENKTIERTLSVELSGTAGLTPPTTPPHKANQDNPFKASPKLKPSCKTVVPPPTKRARYSECSGTQGSHSTKKGPEQSELYAQLSKSSGLSRGHEERKTKRPSLRLFGDHDYCQSLNSKTDILINISQELQDSRQLDFKDASCDWQGHICSSTDSGQCYLRETLEASKQVSPCSTRKQLQDQEIRAELNKHFGHPCQAVFDDKSDKTSELRDGDFSNEQFSKLPVFINSGLAMDGLFDDSEDESDKLSYPWDGTQPYSLFDVSPSCSSFNSPCRDSVSPPKSLFSQRPQRMRSRSRSFSRHRSCSRSPYSRSRSRSPGSRSSSRSCYYYESSHYRHRTHRNSPLYVRSRSRSPYSRRPRYDSYEAYEHERLKRDEYRKEHEKRESERAKQRERQKQKAIEERRVIYVGKIRPDTTRTELRDRFEVFGEIEECTVNLRDDGDSYGFITYRYTCDAFAALENGYTLRRSNETDFELYFCGRKQFFKSNYADLDTNSDDFDPASTKSKYDSLDFDSLLKEAQRSLRR | – | – | binds |

Reference: PMC6953711
